# Source: the supplement of paper PMC12873370
# Where “and” joins values, the source holds several entries; their conditions need not be identical. Identical values can stand only once. This is one part of the list. Repeats are few or missing, and single values can be far off.
# Legend:
# [1] = test system: MEPP (mouse ovarian epithelium Trp53/Pten KO); experiment: cell viability relative to untreated (fraction); higher = less growth inhibition; conditions: 5 µM; 3 days
# [2] = test system: PREPP (mouse prostate epithelium Trp53/Pten KO); experiment: as above; conditions: 5 µM; 3 days
Structure (SMILES),cell viability [1],cell viability [2]
CCCCC(C)(O)C/C=C/[C@H]1[C@H](O)CC(=O)[C@@H]1CCCCCCC(=O)OC (stereo partly drawn),0.796,0.928
CCC[C@@H]1C[C@@H](C(=O)N[C@@H]([C@H]2O[C@H](SC)[C@H](O)[C@@H](O)[C@H]2O)[C@H](C)Cl)N(C)C1,1.1 and 1.11,1.03 and 0.961
O=C(O)[C@H]1O[C@@H](Oc2cc3oc(-c4ccccc4)cc(=O)c3c(O)c2O)[C@H](O)[C@@H](O)[C@@H]1O,0.762,0.911
O=C(/C=C/c1ccc(O)cc1)CC(=O)/C=C/c1ccc(O)cc1,1.34,1.03
NS(=O)(=O)c1cc(C(=O)O)c(NCc2ccco2)cc1Cl,1.09,0.922
OCC1=C[C@@H](O)[C@@H]2C=CO[C@@H](O[C@@H]3O[C@H](CO)[C@@H](O)[C@H](O)[C@H]3O)[C@H]12,0.955,1.22
CC(C)NCC(O)c1ccc(O)c(O)c1 (stereo not drawn),1.01 and 1.04,0.952 and 1.01
O=C(O)CCC(=O)O,0.918,0.752
N[C@H](CO)C(=O)O,0.924,0.843
COc1ccc(CO)cc1OC,0.925,1.02
COc1ccc(C[C@H](N)C(=O)N[C@H]2[C@@H](O)[C@H](n3cnc4c(N(C)C)ncnc43)O[C@@H]2CO)cc1,0.415,0.302
COc1cccc(OC)c1C(=O)OCc1cc(O)ccc1O[C@@H]1O[C@H](CO)[C@@H](O)[C@H](O)[C@H]1O,1.09,0.872
CC(=O)CCCCn1c(=O)c2c(ncn2C)n(C)c1=O,0.983,0.578
CC1=C(/C=C/C(C)=C/C=C/C(C)=C/CO)C(C)(C)CCC1,0.838,0.873
CCOC(=O)c1cc(O)c(O)c(O)c1,1.22,0.807
OC[C@H]1O[C@H](O[C@H]2[C@H](O)[C@@H](O)[C@@H](O[C@H]3[C@H](O)[C@@H](O)[C@@H](O)O[C@@H]3CO)O[C@@H]2CO)[C@H](O)[C@@H](O)[C@@H]1O,0.84,0.839
CCCC1CC(C(=O)NC(C(C)Cl)C2OC(SC)C(O)C(O)C2O)N(C)C1 (stereo not drawn),1.2,1.03

Structure (SMILES),cell viability [1],cell viability [2]
Nc1ncnc2c1ncn2[C@@H]1O[C@H](COP(=O)(O)O)[C@@H](O)[C@H]1O,0.958,0.955
N[C@H]1CONC1=O,0.837,0.867
C=C(C)[C@@H]1CC[C@]2(C)[C@H](CC=C3[C@@H]4[C@@H](C)[C@H](C)CC[C@]4(C)CC[C@]32C)[C@@]1(C)CCC(=O)O,1.13,1.25
O=Cc1ccc(CO)o1,1.74,0.941
CC(=O)NC[C@H]1CN(c2ccc(N3CCOCC3)c(F)c2)C(=O)O1,1.14,0.98
O=c1[nH]cnc2c1ncn2[C@@H]1O[C@H](CO)[C@@H](O)[C@H]1O,0.85,1.01
Cc1c(C(=O)NCCO)[n+]([O-])c2ccccc2[n+]1[O-],0.956,1.04
CCCCCC/C=C\CCCCCCCc1cccc(O)c1C(=O)O,1.06,0.918
CO[C@H]1/C=C/O[C@@]2(C)Oc3c(C)c(O)c4c(c3C2=O)C2=NC3(CCN(CC(C)C)CC3)NC2=C(NC(=O)/C(C)=C\C=C\[C@H](C)[C@H](O)[C@@H](C)[C@@H](O)[C@@H](C)[C@H](OC(C)=O)[C@@H]1C)C4=O,0.985,0.665
CC[C@H](C)[C@H](NC(=O)[C@H](Cc1ccc(O)cc1)NC(=O)[C@@H](NC(=O)[C@H](CCCNC(=N)N)NC(=O)[C@@H](N)CC(=O)O)C(C)C)C(=O)N[C@@H](Cc1cnc[nH]1)C(=O)N1CCC[C@H]1C(=O)N[C@@H](Cc1ccccc1)C(=O)O,0.998,0.742
COc1ccc(C(C)=O)c(O)c1,1.08,1.25
CCC(=O)OCC(=O)[C@@]1(OC(=O)CC)[C@@H](C)C[C@H]2[C@@H]3CCC4=CC(=O)C=C[C@]4(C)[C@@]3(F)[C@@H](O)C[C@@]21C,0.985,0.831
[O-][n+]1cccc(CO)c1,1.22,1.03
C[S+](CC[C@H](N)C(=O)[O-])C[C@H]1O[C@@H](n2cnc3c(N)ncnc32)[C@H](O)[C@@H]1O (stereo partly drawn),0.784 and 1.01,1.02 and 0.983
N[C@H](Cc1ccccc1)C(=O)O,0.954,0.933
C[C@H]1[C@H](OC(=O)CCC(=O)O)O[C@@H]2O[C@@]3(C)CC[C@H]4[C@H](C)CC[C@@H]1[C@@]24OO3,0.562,0.785
CC1(C)CC[C@]2(C(=O)O)CC[C@]3(C)C(=CC[C@@H]4[C@@]5(C)CC[C@H](O)C(C)(C)[C@@H]5CC[C@]43C)[C@@H]2C1,1.06,1.37
